Data from the supplement of paper PMC8728848.
The other results are listed elsewhere or left out.

What was measured:
Test in all cases: glycan array binding signal (z-score within array); higher = stronger binding
Details in all cases: glycan notation: IUPAC condensed, linker removed
[1] = molecular target: Neu5Ac(a2-6)Gal(b1-4)GlcNAc(b1-2)Man(a1-3)[GlcNAc(b1-4)][Neu5Ac(a2-6)Gal(b1-4)GlcNAc(b1-2)Man(a1-6)]Man(b1-4)GlcNAc(b1-4)GlcNAc
Procedure, shortened: (§1)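 Glycan array binding is given as a within-array Z-score, which can be read as non-binding when negative. The arrays, 3228 of them, came from the Consortium for Functional Glycomics database and were retained only where the protein sequence was available. Z-scores were averaged across arrays of the same protein sequence at different concentrations or buffers and across linkers.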

[2] = molecular target: Neu5Ac(a2-6)Gal(b1-4)GlcNAc(b1-2)Man(a1-3)[Man(a1-6)]Man(b1-4)GlcNAc(b1-4)GlcNAc
Procedure, shortened: as §1

[3] = molecular target: Neu5Ac(a2-6)Gal(b1-4)GlcNAc(b1-2)Man(a1-3)[Neu5Ac(a2-3)Gal(b1-4)GlcNAc(b1-2)Man(a1-6)]Man(b1-4)GlcNAc(b1-4)GlcNAc
Procedure, shortened: as §1

[4] = molecular target: Neu5Ac(a2-6)Gal(b1-4)GlcNAc(b1-2)Man(a1-3)[Neu5Ac(a2-6)Gal(b1-4)GlcNAc(b1-2)Man(a1-6)]Man(b1-4)GlcNAc(b1-4)GlcNAc
Procedure, shortened: as §1

[5] = molecular target: Neu5Ac(a2-6)Gal(b1-4)GlcNAc(b1-2)Man(a1-3)[Neu5Ac(a2-6)Gal(b1-4)GlcNAc(b1-2)Man(a1-6)]Man(b1-4)GlcNAc(b1-4)[Fuc(a1-6)]GlcNAc
Procedure, shortened: as §1

[6] = molecular target: Neu5Ac(a2-6)Gal(b1-4)GlcNAc(b1-2)Man(a1-6)Man(b1-4)GlcNAc(b1-4)GlcNAc
Procedure, shortened: as §1

[7] = molecular target: Neu5Ac(a2-6)Gal(b1-4)GlcNAc(b1-2)Man(a1-6)[Gal(b1-4)GlcNAc(b1-2)Man(a1-3)]Man(b1-4)GlcNAc(b1-4)GlcNAc
Procedure, shortened: as §1

[8] = molecular target: Neu5Ac(a2-6)Gal(b1-4)GlcNAc(b1-2)Man(a1-6)[GlcNAc(b1-2)Man(a1-3)]Man(b1-4)GlcNAc(b1-4)GlcNAc
Procedure, shortened: as §1

[9] = molecular target: Neu5Ac(a2-6)Gal(b1-4)GlcNAc(b1-2)Man(a1-6)[Man(a1-3)]Man(b1-4)GlcNAc(b1-4)GlcNAc
Procedure, shortened: as §1

[10] = molecular target: Neu5Ac(a2-6)Gal(b1-4)GlcNAc(b1-2)[Neu5Ac(a2-6)Gal(b1-4)GlcNAc(b1-4)]Man(a1-3)[GlcNAc(b1-4)][Neu5Ac(a2-6)Gal(b1-4)GlcNAc(b1-2)[Neu5Ac(a2-6)Gal(b1-4)GlcNAc(b1-6)]Man(a1-6)]Man(b1-4)GlcNAc(b1-4)GlcNAc
Procedure, shortened: as §1

[11] = molecular target: Neu5Ac(a2-6)Gal(b1-4)GlcNAc(b1-2)[Neu5Ac(a2-6)Gal(b1-4)GlcNAc(b1-4)]Man(a1-3)[GlcNAc(b1-4)][Neu5Ac(a2-6)Gal(b1-4)GlcNAc(b1-4)Man(a1-6)]Man(b1-4)GlcNAc(b1-4)GlcNAc
Procedure, shortened: as §1

[12] = molecular target: Neu5Ac(a2-6)Gal(b1-4)GlcNAc(b1-2)[Neu5Ac(a2-6)Gal(b1-4)GlcNAc(b1-6)]Man(a1-6)[Neu5Ac(a2-6)Gal(b1-4)GlcNAc(b1-2)Man(a1-3)][GlcNAc(b1-4)]Man(b1-4)GlcNAc(b1-4)GlcNAc
Procedure, shortened: as §1

[13] = molecular target: Neu5Ac(a2-6)Gal(b1-4)GlcNAc(b1-3)Gal(b1-3)GlcNAc
Procedure, shortened: as §1

[14] = molecular target: Neu5Ac(a2-6)Gal(b1-4)GlcNAc(b1-3)Gal(b1-4)GlcNAc
Procedure, shortened: as §1

[15] = molecular target: Neu5Ac(a2-6)Gal(b1-4)GlcNAc(b1-3)Gal(b1-4)GlcNAc(b1-2)Man(a1-3)[Neu5Ac(a2-6)Gal(b1-4)GlcNAc(b1-3)Gal(b1-4)GlcNAc(b1-2)Man(a1-6)]GalNAc
Procedure, shortened: as §1

[16] = molecular target: Neu5Ac(a2-6)Gal(b1-4)GlcNAc(b1-3)Gal(b1-4)GlcNAc(b1-3)Gal(b1-4)GlcNAc
Procedure, shortened: as §1

[17] = molecular target: Neu5Ac(a2-6)Gal(b1-4)GlcNAc(b1-3)Gal(b1-4)GlcNAc(b1-3)Gal(b1-4)GlcNAc(b1-2)Man(a1-3)[Neu5Ac(a2-6)Gal(b1-4)GlcNAc(b1-3)Gal(b1-4)GlcNAc(b1-3)Gal(b1-4)GlcNAc(b1-2)Man(a1-6)]GalNAc
Procedure, shortened: as §1

[18] = molecular target: Neu5Ac(a2-6)Gal(b1-4)GlcNAc(b1-3)Gal(b1-4)GlcNAc(b1-3)GalNAc
Procedure, shortened: as §1

[19] = molecular target: Neu5Ac(a2-6)Gal(b1-4)GlcNAc(b1-3)Gal(b1-4)GlcNAc(b1-3)[Neu5Ac(a2-6)Gal(b1-4)GlcNAc(b1-3)Gal(b1-4)GlcNAc(b1-6)]GalNAc
Procedure, shortened: as §1

[20] = molecular target: Neu5Ac(a2-6)Gal(b1-4)GlcNAc(b1-3)Gal(b1-4)GlcNAc(b1-6)[Gal(b1-3)]GalNAc
Procedure, shortened: as §1

[21] = molecular target: Neu5Ac(a2-6)Gal(b1-4)GlcNAc(b1-3)Gal(b1-4)[Fuc(a1-3)]GlcNAc(b1-3)Gal(b1-4)[Fuc(a1-3)]GlcNAc
Procedure, shortened: as §1

[22] = molecular target: Neu5Ac(a2-6)Gal(b1-4)GlcNAc(b1-3)GalNAc
Procedure, shortened: as §1

[23] = molecular target: Neu5Ac(a2-6)Gal(b1-4)GlcNAc(b1-3)[Neu5Ac(a2-6)Gal(b1-4)GlcNAc(b1-6)]GalNAc
Procedure, shortened: as §1

[24] = molecular target: Neu5Ac(a2-6)Gal(b1-4)GlcNAc(b1-6)GalNAc
Procedure, shortened: as §1

[25] = molecular target: Neu5Ac(a2-6)Gal(b1-4)GlcNAc(b1-6)[Gal(b1-3)GlcNAc(b1-3)]Gal(b1-4)Glc
Procedure, shortened: as §1

[26] = molecular target: Neu5Ac(a2-6)Gal(b1-4)GlcNAc(b1-6)[Gal(b1-3)]GalNAc
Procedure, shortened: as §1

[27] = molecular target: Neu5Ac(a2-6)Gal(b1-4)GlcNAc6S
Procedure, shortened: as §1

[28] = molecular target: Neu5Ac(a2-6)GalNAc
Procedure, shortened: as §1

[29] = molecular target: Neu5Ac(a2-6)GalNAc(b1-4)GlcNAc
Procedure, shortened: as §1

[30] = molecular target: Neu5Ac(a2-6)GalNAc(b1-4)GlcNAc6S
Procedure, shortened: as §1

[31] = molecular target: Neu5Ac(a2-6)GlcNAc(b1-4)GlcNAc
Procedure, shortened: as §1

B1: AT3G44510(29) (Arabidopsis thaliana), F4J341 (protein)
chain: MEEHLQGRIKLHDGRYLAYKERGVPKDDAKFTIVLVHGFGSSKDMNFNVSQELVNEIGIYFVLYDRAGYGESDPNPKRSLKSEAYDVQELADGLEIGSRFYLIGISMGSYTVWSCLKHIPQRLAGVAMVAPVVNFRWPSIPKSLMPKDYRREVAKWSVWIANYFPGLLQWLVTQNMFSTTSMLEKNPVYFNDQDIEVLKHIKGFPMLTKEKLRERGVFGTLRSDFLVAFGDWDFDPADLPDPSLSGPEKGSSSVHIWQGYEDKVMPFQLQRCLCRKLPWIRYHEVPKGGHLIVHYDGICDAILKSLLLGEDLPMYKPKAVITEPA
glycan array binding signal (z-score) [1]: -0.438
glycan array binding signal (z-score) [2]: -0.667
glycan array binding signal (z-score) [3]: 0.086
glycan array binding signal (z-score) [4]: 0.398
glycan array binding signal (z-score) [5]: -0.482
glycan array binding signal (z-score) [6]: -0.257
glycan array binding signal (z-score) [7]: 0.119
glycan array binding signal (z-score) [8]: -0.553
glycan array binding signal (z-score) [9]: 0.633
glycan array binding signal (z-score) [10]: -0.785
glycan array binding signal (z-score) [11]: -0.131
glycan array binding signal (z-score) [12]: -0.036
glycan array binding signal (z-score) [13]: -0.321
glycan array binding signal (z-score) [14]: -0.06
glycan array binding signal (z-score) [15]: -0.18
glycan array binding signal (z-score) [16]: -0.818
glycan array binding signal (z-score) [17]: 2.59
glycan array binding signal (z-score) [18]: -0.097
glycan array binding signal (z-score) [19]: -0.717
glycan array binding signal (z-score) [20]: -0.695
glycan array binding signal (z-score) [21]: -0.025
glycan array binding signal (z-score) [22]: 0.206
glycan array binding signal (z-score) [23]: -0.381
glycan array binding signal (z-score) [24]: 0.464
glycan array binding signal (z-score) [25]: -0.332
glycan array binding signal (z-score) [26]: -0.396
glycan array binding signal (z-score) [27]: -0.464
glycan array binding signal (z-score) [28]: -0.271
glycan array binding signal (z-score) [29]: 0.107
glycan array binding signal (z-score) [30]: -0.42
glycan array binding signal (z-score) [31]: -0.656
